Measured values taken from the supplement of paper PMC5949888.
± gives the standard deviation of the averaged measurements. Most values lie at the floor of the assay. Slopes are relative: functional sequences can read slightly below zero.

test system: Saccharomyces cerevisiae PS128 hsf1 delta, HSF1(1-493) fusion; assay: growth estimate (transactivation domain function in HSF1 fusion, heat-shock survival) (a.u. (slope of normalised read count over time)); higher = stronger growth at 37°C, i.e. more transactivation activity; conditions: library: random library

Substance	growth estimate
SRISWRVSRLSGFPDSMSFM	< -0.25
SLLVDVSDLCWGGVGRGSGV	< -0.25
DSTVKAGMGSHAAAYTNCIP	< -0.25
VLLSSGTCLGASCEYASCVP	< -0.25
AISLNVVRHYVTSRAG	< -0.25
ADEKNTRLVTWEGRTVSHWG	< -0.25
RYIRARAFALFNWCETL	< -0.25
GRVRDRSSKQPFKLL	< -0.25
SGDGQARAAMRTTGILTAGV	< -0.25
RWFINTSVLLDRSSMKKYQS	< -0.25
SHMIPVIGVRYQIFIISGID	-0.243
EVLALPRREDAMR	< -0.25
VAVAASSMVK	< -0.25
PSPFEYVVL	< -0.25
TVDHANVNASRCVSRASLMC	< -0.25
MQLYHAGIQAHLPKCMSTLG	< -0.25
GSSSSCCLRQVILYLPTTFL	< -0.25
NCGVG	< -0.25
LYPNTRT	< -0.25
TDRQGMRGGVTAPDC	< -0.25
IWVRVQEMSTD	< -0.25
TFSDVQLAPQPPMCLV	< -0.25
QFVPDPVKSTAGVRAKAICV	< -0.25
GQGTVLIYVDVLGCSCVALL	< -0.25
IKDSQSSIKAGFA	< -0.25
RDE	< -0.25
AGIACGLNGCPYQVAGLGQP	< -0.25

Substance	growth estimate
RFREGLDLRNLCRPRLLSRN	< -0.25
KMGLTTRSHSR	< -0.25
ERKRRPEGIPRLSLAGSVHM	< -0.25
LHLAIFLGYAHLAK	< -0.25
TVNYMRIFERR	< -0.25
PVNKNANYLSAIVGP	< -0.25
WSRSWRHRIYDLYITCRKL	< -0.25
TAGL	< -0.25
HEEGKATSTVGNAATGPLCL	< -0.25
HGIIEYM	< -0.25
ERL	-0.248 ± 0.003
PLSGKESRDCHLRVWLEGKE	< -0.25
KRR	< -0.25
VVKSQKLPSFGWRRPFSFRQ	< -0.25
QIFCACVRTITYAPIVGHTS	< -0.25
MKWRHVEDRGT	< -0.25
CHLANGGNFVTLMVV	< -0.25
LTGIASRYDP	< -0.25
ASQGCEPLRKL	< -0.25
AIRCLENRNFSGVIMLEFLV	< -0.25
SGGGTRTQCKALVTSTSTVT	< -0.25
DVGKTPVGLVVSRSRGTEG	< -0.25
SVKQMPKSICMY	< -0.25
TLRPRPNPGKN	< -0.25
LVCHVKRWLHVECPKKFGPA	< -0.25
CWKVTGSWGFRK	< -0.25
SWGT	< -0.25

Substance	growth estimate
SQYTGGGSIPPTSTIAF	< -0.25
AGTTSVYGQYMS	< -0.25
AHCGRSWLESATQFEKSYGP	< -0.25
GCGVQATNVAQVGSGAVNAP	-0.243
RNILRS	-0.241
RGIGFIKRHSAPKRRRFQCA	< -0.25
IDELGTATVVWE	< -0.25
EHGFPIFPGPC	< -0.25
DDWMRYAAPH	< -0.25
LRDWRPLPRRDY	< -0.25
SRRVGARHRAGGSAP	< -0.25
MEMTMAVQQRRIHDRPLFGK	-0.244
PVRILCY	< -0.25
ILIRRGSVTIYAFDGCTTPD	< -0.25
TREMPQCTWKRTAILSTGNV	< -0.25
YASGWIPDGMRESLSVFAVC	< -0.25
GHIKLTLRAGE	< -0.25
ASCCSRTG	< -0.25
SVIWRIWTTGRGNQVVCPSS	< -0.25
LGGYWQ	< -0.25
SWNVHLGYPTAGN	2.27
VAGPSPQKLGSE	-0.231
LPGRPTDCIRLTASVEELSR	< -0.25
NELPGVTCLCPVPQSISAGH	< -0.25
SHNGRWTQTEFGRGIFVRLD	< -0.25
SSP	-0.192

A few values from above:
Value for SWNVHLGYPTAGN under growth estimate: 2.27
Value for DDWMRYAAPH under growth estimate: < -0.25
Value for PVRILCY under growth estimate: < -0.25
Value for SRRVGARHRAGGSAP under growth estimate: < -0.25
Value for SVIWRIWTTGRGNQVVCPSS under growth estimate: < -0.25
Value for NELPGVTCLCPVPQSISAGH under growth estimate: < -0.25
